Test system: T cells from a beryllium-sensitive individual
Assay: Surface versus intracellular CD4/CD8 staining of CFSE-labeled T cells cultured with beryllium sulfate
Type: cell-based, human
Conditions: seven days with 10 or 100 μM, representative example

O=S(=O)([O-])[O-].[Be+2] [Be, beryllium sulfate]
CD4+ low population of the T cell population (surface staining) (gated on CD3+ T cells): 37.3% | CD4+ CD8- cells with intracellular staining (permeabilized cells): 58.3% | CD8+ cells, surface and intracellular staining identical: 7.6%
